# Measured values published in paper PMC3963859.
# Sequences of proteins named here, by UniProt entry; tags and fusion partners are left off. A change or cut given only in a name is not applied to a line headed by its entry.
# UniProt A0QSH0: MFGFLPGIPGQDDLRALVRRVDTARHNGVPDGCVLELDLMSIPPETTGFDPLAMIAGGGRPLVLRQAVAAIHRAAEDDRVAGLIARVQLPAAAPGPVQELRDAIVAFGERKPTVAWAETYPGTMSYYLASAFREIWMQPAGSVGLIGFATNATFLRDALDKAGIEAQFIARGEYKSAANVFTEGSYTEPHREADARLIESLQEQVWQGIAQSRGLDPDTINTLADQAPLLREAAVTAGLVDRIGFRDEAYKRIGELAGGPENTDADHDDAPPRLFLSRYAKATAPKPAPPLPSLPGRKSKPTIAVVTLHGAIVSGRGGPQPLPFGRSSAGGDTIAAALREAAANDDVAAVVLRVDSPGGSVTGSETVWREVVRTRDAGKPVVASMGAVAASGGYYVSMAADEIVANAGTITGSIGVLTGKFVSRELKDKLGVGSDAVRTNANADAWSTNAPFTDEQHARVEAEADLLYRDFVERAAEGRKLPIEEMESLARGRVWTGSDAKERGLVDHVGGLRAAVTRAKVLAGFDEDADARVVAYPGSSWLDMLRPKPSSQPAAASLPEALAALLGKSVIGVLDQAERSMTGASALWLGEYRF
# UniProt A0R037: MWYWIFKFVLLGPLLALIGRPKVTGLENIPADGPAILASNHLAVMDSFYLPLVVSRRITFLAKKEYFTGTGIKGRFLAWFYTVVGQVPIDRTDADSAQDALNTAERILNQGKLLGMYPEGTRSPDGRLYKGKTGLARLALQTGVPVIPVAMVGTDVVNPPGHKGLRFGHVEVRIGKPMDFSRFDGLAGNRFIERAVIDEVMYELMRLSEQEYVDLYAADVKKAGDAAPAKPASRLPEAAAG
# UniProt A0R5R5: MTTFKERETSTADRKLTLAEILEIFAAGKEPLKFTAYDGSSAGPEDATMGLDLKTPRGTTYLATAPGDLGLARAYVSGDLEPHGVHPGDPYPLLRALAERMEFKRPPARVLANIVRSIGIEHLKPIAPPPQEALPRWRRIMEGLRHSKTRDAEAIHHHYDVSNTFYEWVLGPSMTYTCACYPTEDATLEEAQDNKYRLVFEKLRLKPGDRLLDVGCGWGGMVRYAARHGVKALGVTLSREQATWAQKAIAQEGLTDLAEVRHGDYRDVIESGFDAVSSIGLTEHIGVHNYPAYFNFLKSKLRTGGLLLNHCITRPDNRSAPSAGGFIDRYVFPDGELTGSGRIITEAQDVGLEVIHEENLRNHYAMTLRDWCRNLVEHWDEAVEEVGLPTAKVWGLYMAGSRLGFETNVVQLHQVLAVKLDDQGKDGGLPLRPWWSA
# Assays:
# Test in all cases: affinity purification with mass spectrom
# [1] = biological target: T1, ribonucleoside-diphosphate reductase, beta subunit (MSMEG_0358), FLAG-tagged (M. smegmatis) (UniProt A0QPD3)
# T1 sequence: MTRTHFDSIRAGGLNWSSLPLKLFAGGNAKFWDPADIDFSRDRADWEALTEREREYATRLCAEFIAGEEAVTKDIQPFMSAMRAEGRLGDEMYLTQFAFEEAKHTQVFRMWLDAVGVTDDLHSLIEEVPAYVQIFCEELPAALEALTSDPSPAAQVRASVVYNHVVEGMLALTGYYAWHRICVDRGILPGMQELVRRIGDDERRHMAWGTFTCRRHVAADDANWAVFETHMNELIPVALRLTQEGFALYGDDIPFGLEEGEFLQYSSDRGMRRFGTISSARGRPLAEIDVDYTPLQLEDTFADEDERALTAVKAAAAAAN
# [2] = biological target: T2, ribonucleoside-diphosphate reductase, beta subunit (MSMEG_0358), protein A-tagged (M. smegmatis) (UniProt A0QPD3)
# T2 sequence: T1 sequence
# [3] = biological target: T3, ribonucleoside-diphosphate reductase, beta subunit (MSMEG_0358), HA-tagged (M. smegmatis) (UniProt A0QPD3)
# T3 sequence: T1 sequence
# [4] = biological target: T4, MSMEG_3085, phosphoglycerate kinase (Pgk), tagged bait (tag not told for this result) (M. smegmatis) (UniProt A0QWW3)
# T4 sequence: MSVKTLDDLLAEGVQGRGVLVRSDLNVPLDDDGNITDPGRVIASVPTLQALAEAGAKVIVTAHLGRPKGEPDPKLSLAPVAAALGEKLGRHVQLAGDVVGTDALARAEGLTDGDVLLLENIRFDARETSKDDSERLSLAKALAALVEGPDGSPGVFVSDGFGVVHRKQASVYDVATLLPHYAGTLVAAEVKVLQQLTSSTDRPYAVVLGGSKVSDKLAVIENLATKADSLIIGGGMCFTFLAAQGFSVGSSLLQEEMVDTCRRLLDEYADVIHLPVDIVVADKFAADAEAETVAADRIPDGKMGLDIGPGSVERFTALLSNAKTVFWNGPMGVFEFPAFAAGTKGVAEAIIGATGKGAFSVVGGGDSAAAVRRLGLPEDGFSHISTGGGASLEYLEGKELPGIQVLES
binding [1],binding [2],binding [3],binding [4],Substance
binds,binds,binds,,"MSMEG_1476, a signal peptide peptidase (from UniProt A0QSH0)"
,,,binds,"MSMEG_4248, a 1-acylglycerol-3-phosphate O-acyltransferase (from UniProt A0R037) (enzyme)"
binds,binds,binds,,"MSMEG_6284, a cyclopropane-fatty-acyl-phospholipid synthase (from UniProt A0R5R5) (enzyme)"

# Results are given in words; binding and its absence hold for the method and conditions named. Binding seen in cells or lysates may run through a third protein. A yes stands for co-enrichment or nearness to the bait. Other partners may have been found. Where a sequence is shown, tags or fusion partners need not be part of it.
